This is an account of results in paper PMC12134178.

Chains of the proteins cited; added tags and fusions are not shown.
UniProt Q07817: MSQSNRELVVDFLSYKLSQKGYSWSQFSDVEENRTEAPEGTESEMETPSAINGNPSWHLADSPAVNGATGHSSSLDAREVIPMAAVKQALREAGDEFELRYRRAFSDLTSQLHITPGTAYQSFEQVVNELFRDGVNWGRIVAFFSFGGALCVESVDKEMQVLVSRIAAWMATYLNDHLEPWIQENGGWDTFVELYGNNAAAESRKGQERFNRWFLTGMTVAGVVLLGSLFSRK
UniProt P97287: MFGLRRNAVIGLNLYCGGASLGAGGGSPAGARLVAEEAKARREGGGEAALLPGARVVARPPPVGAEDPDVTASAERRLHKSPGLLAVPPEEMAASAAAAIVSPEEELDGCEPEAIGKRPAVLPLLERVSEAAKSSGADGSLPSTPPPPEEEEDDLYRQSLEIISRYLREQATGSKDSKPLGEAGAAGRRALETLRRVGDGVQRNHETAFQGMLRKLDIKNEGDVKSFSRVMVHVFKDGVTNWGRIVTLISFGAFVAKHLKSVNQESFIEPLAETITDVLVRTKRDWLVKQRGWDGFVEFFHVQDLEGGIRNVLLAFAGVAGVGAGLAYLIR
UniProt P10415: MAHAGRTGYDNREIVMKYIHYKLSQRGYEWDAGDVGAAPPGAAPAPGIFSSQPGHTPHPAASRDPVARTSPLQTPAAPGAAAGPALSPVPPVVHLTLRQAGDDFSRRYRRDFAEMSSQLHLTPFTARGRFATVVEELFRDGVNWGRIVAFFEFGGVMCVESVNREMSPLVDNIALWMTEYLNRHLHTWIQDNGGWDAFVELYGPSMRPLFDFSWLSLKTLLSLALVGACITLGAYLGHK

Holding throughout (assay): proximity ligation; Duolink-PLA in fixed Casp9−/− MEFs 24 h after transfection with the tagged Bcl-2 family protein and GFP-MAO; anti-nesprin-2G antibody with anti-Flag or anti-HA antibody; dots per cell area relative to the empty-vector control
Test [1] addresses Flag-Bcl-xL (UniProt Q07817).
Test [2] addresses Flag-Mcl-1 (UniProt P97287).
Test [3] concerns the target Flag-hBcl-2 (human) (UniProt P10415).
The target of test [4] is T1, HA-Bak (UniProt Q16611).
T1 sequence: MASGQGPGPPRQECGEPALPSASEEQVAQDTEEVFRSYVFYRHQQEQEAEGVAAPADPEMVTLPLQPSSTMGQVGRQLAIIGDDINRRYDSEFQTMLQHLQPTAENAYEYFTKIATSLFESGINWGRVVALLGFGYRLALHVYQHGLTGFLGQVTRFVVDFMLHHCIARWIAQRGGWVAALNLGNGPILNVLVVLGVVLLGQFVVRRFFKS

Results are given in words; binding and its absence hold for the method and conditions named. In cells and extracts the contact can be indirect. Some results given as binding are weak or reduced against the parent protein; the word gives no strength. For some of these results: Where a sequence is shown, tags or fusion partners need not be part of it.

For the substance “nesprin-2 giant (Nes2G), endogenous (from UniProt Q6ZWQ0-1 1-6874)”, the binding result was “binds” in test [1], “no binding” in test [2], “binds” in test [3] and “binds” in test [4].
